Taken from: PubChem BioAssay AID504808 (Drosophila RNAi Screening Center, 2011)
The deposit covers about 21,000 reagents; below is a random part of those that have a named target and a result. Of all reagents, 18 (0.084%) are marked active. 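Raw counts without plate normalisation, one of two replicates; the ratio scores behind the calls were not deposited.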 Entries without a mark were called inactive. A plus sign joins genes that one reagent is predicted to hit. Not given: the amount of reagent, the time to read-out.

- Assay: 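Fly genes required to hold E2F transcription in check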 (primary screen)
- Cells: Drosophila S2 cells
- Reagent: long dsRNA against Drosophila genes
- Detection: 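Dual luciferase plate measurements; E2F-specific signal taken as firefly over Renilla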
- Direction: E2F firefly: higher = more E2F reporter activity; Renilla normaliser: higher = more normaliser reporter signal
- Hit rule: 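Called active if the normalised E2F reporter went up by over 50%; the cutoff is arbitrary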

CG13921 [DRSC08390]: E2F firefly, rep 1 = 69336; Renilla normaliser, rep 1 = 3119
CG3690 [DRSC18170]: E2F firefly, rep 1 = 1.14e5; Renilla normaliser, rep 1 = 5967
CG3690 [DRSC18641]: E2F firefly, rep 1 = 1.13e5; Renilla normaliser, rep 1 = 6670
CG15531 [DRSC15068]: E2F firefly, rep 1 = 1.35e5; Renilla normaliser, rep 1 = 6032
Cp190 [DRSC16607]: E2F firefly, rep 1 = 78910; Renilla normaliser, rep 1 = 3284
CG3719 [DRSC18493]: E2F firefly, rep 1 = 46196; Renilla normaliser, rep 1 = 3419
Mdr50 [DRSC07467]: E2F firefly, rep 1 = 80852; Renilla normaliser, rep 1 = 3835
CG34198 [DRSC05803]: E2F firefly, rep 1 = 1.74e5; Renilla normaliser, rep 1 = 6132
Tomosyn [DRSC19365]: E2F firefly, rep 1 = 7638; Renilla normaliser, rep 1 = 748
Tomosyn [DRSC19692]: E2F firefly, rep 1 = 8023; Renilla normaliser, rep 1 = 365
Tomosyn [DRSC19782]: E2F firefly, rep 1 = 8110; Renilla normaliser, rep 1 = 668
Tomosyn [DRSC19842]: E2F firefly, rep 1 = 1.31e5; Renilla normaliser, rep 1 = 4582
MFS3 [DRSC00664]: E2F firefly, rep 1 = 1.41e5; Renilla normaliser, rep 1 = 5286
128up [DRSC05027]: E2F firefly, rep 1 = 3069; Renilla normaliser, rep 1 = 192
Arp5 [DRSC16350]: E2F firefly, rep 1 = 63137; Renilla normaliser, rep 1 = 2746
Wnt5 [DRSC20300]: E2F firefly, rep 1 = 1.43e5; Renilla normaliser, rep 1 = 5731
AANATL7 [DRSC18616]: E2F firefly, rep 1 = 1.08e5; Renilla normaliser, rep 1 = 6737
CYLD [DRSC02870]: E2F firefly, rep 1 = 1.42e5; Renilla normaliser, rep 1 = 5092
CG13926 [DRSC08395]: E2F firefly, rep 1 = 86395; Renilla normaliser, rep 1 = 4350
twin [DRSC15259]: E2F firefly, rep 1 = 75085; Renilla normaliser, rep 1 = 3555
twin [DRSC15831]: E2F firefly, rep 1 = 1.28e5; Renilla normaliser, rep 1 = 6499
Arts + Apl [DRSC10349]: E2F firefly, rep 1 = 1.78e5; Renilla normaliser, rep 1 = 8759
CG14280 [DRSC14761]: E2F firefly, rep 1 = 1.30e5; Renilla normaliser, rep 1 = 7149
GABA-B-R3 [DRSC00561]: E2F firefly, rep 1 = 1.68e5; Renilla normaliser, rep 1 = 6166
CG30116 [DRSC05935]: E2F firefly, rep 1 = 60214; Renilla normaliser, rep 1 = 3330
CG30116 [DRSC06685]: E2F firefly, rep 1 = 1.61e5; Renilla normaliser, rep 1 = 5067
CG10969 [DRSC09811]: E2F firefly, rep 1 = 1.33e5; Renilla normaliser, rep 1 = 6735
mei-38 [DRSC18564]: E2F firefly, rep 1 = 1.22e5; Renilla normaliser, rep 1 = 5246
TTLL5 [DRSC14181]: E2F firefly, rep 1 = 76594; Renilla normaliser, rep 1 = 3194
CG33322 [DRSC03204]: E2F firefly, rep 1 = 1.06e5; Renilla normaliser, rep 1 = 4032
CG17672 [DRSC09230]: E2F firefly, rep 1 = 79739; Renilla normaliser, rep 1 = 3429
CG17672 [DRSC10278]: E2F firefly, rep 1 = 81376; Renilla normaliser, rep 1 = 3546
Trs23 [DRSC03190]: E2F firefly, rep 1 = 1.44e5; Renilla normaliser, rep 1 = 5469
Send1 [DRSC00482]: E2F firefly, rep 1 = 1.38e5; Renilla normaliser, rep 1 = 5242
Srg3 [DRSC08984]: E2F firefly, rep 1 = 1.46e5; Renilla normaliser, rep 1 = 5076
Srg3 [DRSC10178]: E2F firefly, rep 1 = 59255; Renilla normaliser, rep 1 = 2608
